From paper PMC4515828
No constants are given. Whether binding was seen depends on the method and setting. Some results given as binding are weak or reduced against the parent protein; the word gives no strength.

By UniProt entry, the sequences of proteins in these tests, tags left out. Where a name states a change or a piece, a line headed by the entry shows the natural chain unless it says otherwise. Residues count along the entry.
UniProt P40337: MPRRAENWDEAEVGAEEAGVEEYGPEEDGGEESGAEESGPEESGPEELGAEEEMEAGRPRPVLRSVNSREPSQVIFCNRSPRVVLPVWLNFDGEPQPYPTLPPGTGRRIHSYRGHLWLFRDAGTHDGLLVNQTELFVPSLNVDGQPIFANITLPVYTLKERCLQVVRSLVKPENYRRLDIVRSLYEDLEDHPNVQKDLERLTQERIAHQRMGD
pVHL30 N-terminal tail (pVHL-N), residues 1 to 53: residues 1-53 of P40337
von Hippel-Lindau tumor suppressor protein, isoform pVHL19: residues 54-213 of P40337

What was measured:
Test in all cases: two-hybrid; Matchmaker Gold Yeast Two-Hybrid System, Y2HGold strain, MEL1 (alpha-galactosidase) reporter quantified colorimetrically in liquid culture; pVHL constructs in pGBKT7 as baits, p14ARF or pVHL constructs in pGADT7 as preys; activity related to the expression level of the fusion proteins
[1] = biological target: von Hippel-Lindau tumor suppressor protein, isoform pVHL19 (human) (UniProt P40337)
[2] = biological target: pVHL30 N-terminal tail (pVHL-N), residues 1 to 53 (human) (UniProt P40337)
[3] = biological target: von Hippel-Lindau tumor suppressor protein, isoform pVHL30 (human) (UniProt P40337)

| Substance | binding [1] | binding [2] | binding [3] |
| --- | --- | --- | --- |
| von Hippel-Lindau tumor suppressor protein, isoform pVHL19 (from UniProt P40337-1 54-213) | binds | binds | no binding |
| p14ARF (from UniProt Q8N726-1 1-132) | no binding | binds | binds |
